Results on 18 compounds are retold here after PubChem BioAssay (NCATS).

A short description of experiment [1]: qHTS for identification of novel therapeutic agents for treatment of microphthalmiaassociated transcription factor (MiT) renal cell carcinoma (RCC) (AID 1963991). Particulars: CellTiter-Glo, 48 h; for z-score: stronger effect = lower value. In short, it runs like this: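 Curves over 11 concentrations were fitted to CellTiter-Glo luminescence, scaled between empty wells (0%) and DMSO (100%) viability. Cells were UOK109, UOK124 and UOK145 TFE3-fusion RCC lines at 500/well, exposed 48 hours at 37 C.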

A short description of experiment [2]: qHTS Validation Assay to Find Inhibitors of Chronic Active B-Cell Receptor Signaling (AID 485345). The note with it: ABC-DLBCL cells, chronic BCR signaling reporter; measured here: CBR control luciferase (viability counter). In short, it runs like this: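 Read-out: ratio of filter-corrected green (IkappaBalpha fusion) to red (native) luciferase signal in doxycycline-induced TMD8 cells after 4 h at 37C. Titration spanned 46 uM–3 nM; Data were normalised to basal cells and 10 uM MG-132 wells.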

The nature of experiment [3]: qHTS assay for small molecule antagonists of peroxisome proliferator-activated receptor delta signaling (AID 588535).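 Also: cells co-treated with a PPAR-delta agonist as stimulator during compound exposure.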 The note with it: HEK293T PPARd-UAS-bla, beta-lactamase FRET ratio, 18 h; 460 nm channel. In short, it runs like this:
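HEK293T PPAR-delta-UAS-bla cells, 4000/well, 2% charcoal/dextran FBS; 5 h 37 C; cpd titration; 18 h 37 C; CCF4 2 h RT; FI 460/530 nm; Hill fit → IC50, efficacy.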

The nature of experiment [4]: qHTS assay for small molecule antagonists of peroxisome proliferator-activated receptor gamma signaling (AID 588537). Particulars: HEK293 PPARg-UAS-bla, beta-lactamase ratio, antagonist mode; measured here: W460 blue channel. In short, it runs like this: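 Antagonist mode, beta-lactamase reporter in HEK293; charcoal/dextran FBS 1%; 3000 cells/well, 37 C 6-6.5 h; cpd titration + rosiglitazone 50 nM final, 16 h 37 C; CCF4, 2 h RT; 460/530 nm; Hill fit → IC50, efficacy.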

Experiment [5] is described as follows: S16 Schwann cell PMP22 intronic element beta-lactamase assay (AID 624044). Particulars: S16 rat Schwann cells, PMP22 element beta-lactamase FRET, 24 h; measured here: 460 nm blue channel. In short, it runs like this:
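Rat S16 Schwann cells with beta-Lac driven by a PMP22 intronic element, compound-treated 24 h at 37 °C. LiveBLAzer FRET B/G read: 460 nm normalized to potassium clavulanate vs DMSO; 535 nm FRET as viability; concentration-effect curves classified.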

Setting [6] is: TFE3-RCC UOK109 viability, measured here: UOK109 Z-AUC.
The mark [7] stands for this setting: TFE3-RCC viability, measured here: UOK124 Z-AUC.
[8] abbreviates: TFE3-RCC viability, measured here: UOK124 cell viability.
Where [9] appears, read: TFE3-RCC viability, measured here: UOK145 Z-AUC.
Where [10] appears, read: TFE3-RCC viability, measured here: UOK145 cell viability.

Some of the results follow. These are further read-outs of the screen, such as a control signal, another cell line or another target. No call is given for them. The list favours compounds with an active or inconclusive main result. For some assays here: Words in brackets tell the shape of the fitted curve; partial curves, single points and poor fits give uncertain potencies.

`CNC(=O)c1cc(COc2nnc(Nc3ccc(Cl)cc3)c3ccoc23)ccn1`: the z-score in experiment [1] (setting [6]) is 0.26; in experiment [1] (setting [7]) it was -0.0462; in experiment [1] (setting [9]) it was 0.647. Moreover, the AC50 was 33.2 µM [falling, single point] in experiment [1] (setting [8]) and 29.6 µM [falling, single point] in experiment [1] (setting [10]).
With `CN(C)CC(C)(C)CNc1nn2c(-c3ccccc3)nnc2cc1C1CCC1`, the values for the z-score in experiment [1] (setting [6]), in experiment [1] (setting [7]) and in experiment [1] (setting [9]) were -0.908, -1.2 and -0.156, respectively. In addition, the concentration at half-maximal activity (AC50) is 1.18 µM [falling, full curve] in experiment [1] (setting [8]) and 1.66 µM [falling, full curve] in experiment [1] (setting [10]).
For `CCCCCCCCCCCCCCCC(=O)O[C@H]1[C@@H](O)[C@@H](O)[C@@H]([C@H](NC(=O)[C@@H]2C[C@@H](CCC)CN2C)[C@H](C)Cl)O[C@@H]1SC`, the z-score in experiment [1] (setting [6]) was 0.654; in experiment [1] (setting [7]) it was 1.03; in experiment [1] (setting [9]), 0.752. Also, the AC50 in experiment [1] (setting [8]) is 23.5 µM [falling, single point]; in experiment [1] (setting [10]) it was 37.2 µM [falling, single point].
In the case of `CCOC(=O)[C@H](CCc1ccccc1)N[C@@H](C)C(=O)N1[C@@H](C(=O)O)C[C@H]2CCC[C@@H]21`, the z-score is 0.289 in experiment [1] (setting [6]), -0.625 in experiment [1] (setting [7]) and 0.202 in experiment [1] (setting [9]). The concentration at half-maximal activity (AC50) in experiment [1] (setting [8]) was 6.62 µM [falling, full curve]; in experiment [1] (setting [10]), 26.4 µM [falling, partial curve].
Regarding `CC(C=CC=C(C)C=CC1=C(C)CCCC1(C)C)=CC=CC=C(C)C=CC=C(C)C=CC1=C(C)CCCC1(C)C`, the z-score in experiment [1] (setting [6]) is 1.01; in experiment [1] (setting [7]), -0.043; in experiment [1] (setting [9]), 0.563. For the same compound, the AC50 in experiment [1] (setting [8]) was 16.6 µM [falling, partial curve, poor fit]; in experiment [1] (setting [10]), 20.9 µM [falling, partial curve, poor fit].
On to `O=c1[nH]c(-c2ccc(C(F)(F)F)cc2)nc2c1CSCC2`, for which the results for the z-score in experiment [1] (setting [6]), in experiment [1] (setting [7]) and in experiment [1] (setting [9]) were 0.531, 0.385 and 0.524, respectively. For the same compound, the AC50 in experiment [1] (setting [8]) is 1.66 µM [falling, partial curve, poor fit]; in experiment [1] (setting [10]), 3.32 µM [falling, partial curve, poor fit].
Turning to `CCOC(=O)C1=C(N)Oc2ccc(Br)cc2C1C(C#N)C(=O)OCC` (configuration not stated), the z-score is 0.985 in experiment [1] (setting [6]), 0.0868 in experiment [1] (setting [7]) and 0.714 in experiment [1] (setting [9]). For the same compound, the half-maximal activity concentration (AC50) is 23.5 µM [falling, partial curve] in experiment [1] (setting [8]) and 20.9 µM [falling, partial curve, poor fit] in experiment [1] (setting [10]).
As for `Cn1cc(C2=C(c3c4n(c5ccccc35)CCC(CN)C4)C(=O)NC2=O)c2ccccc21` (configuration not stated), the z-score in experiment [1] (setting [6]) is 0.283; in experiment [1] (setting [7]), -0.8; in experiment [1] (setting [9]), 0.385. Also, the AC50 was 10.5 µM [falling, partial curve] in experiment [1] (setting [8]) and 26.4 µM [falling, partial curve] in experiment [1] (setting [10]).
As to `Nc1nc(N)c2nc(-c3cccc(O)c3)c(-c3cccc(O)c3)nc2n1`, the results for the z-score in experiment [1] (setting [6]), in experiment [1] (setting [7]) and in experiment [1] (setting [9]) were -0.934, -0.735 and 0.249, respectively. Further, the AC50 in experiment [1] (setting [8]) was 29.6 µM [falling, partial curve, poor fit]; in experiment [1] (setting [10]), 16.6 µM [falling, partial curve].
Consider `O=c1c(-c2ccc(O)cc2)coc2cc(OC3O[C@H](CO)[C@H](O)[C@H](O)[C@H]3O)cc(O)c12` (some centres not stated), for which the values for the z-score in experiment [1] (setting [6]), in experiment [1] (setting [7]) and in experiment [1] (setting [9]) were 0.649, -0.0817 and -0.418, respectively. In addition, the concentration at half-maximal activity (AC50) in experiment [1] (setting [8]) was 18.7 µM [falling, partial curve, poor fit]; in experiment [1] (setting [10]), 16.6 µM [falling, partial curve].
With `CNC(=O)c1c(-c2ccc(F)cc2)oc2cc(N(CCO)S(C)(=O)=O)c(C3CC3)cc12`, the z-score in experiment [1] (setting [6]) is -0.179; in experiment [1] (setting [7]), -1.41; in experiment [1] (setting [9]) it was -0.337. Besides, the half-maximal activity concentration (AC50) in experiment [1] (setting [8]) was 0.00105 µM [falling, full curve, poor fit]; in experiment [1] (setting [10]) it was 18.7 µM [falling, partial curve].
Regarding `CCNC(=O)Nc1ccc2ncc(Nc3ccc(C)cc3)nc2n1`, the z-score in experiment [1] (setting [6]) is -0.642; in experiment [1] (setting [7]) it was 2.6; in experiment [1] (setting [9]), 0.419. Moreover, the AC50 in experiment [1] (setting [8]) was 23.5 µM [falling, partial curve]; in experiment [1] (setting [10]) it was 23.5 µM [falling, partial curve].
`O=C(Nc1ncc(SCCN2CCCC2)s1)[C@]1(c2ccc(S(=O)(=O)C3CC3)cc2)C[C@@H]1C1CCCCC1`: the z-score was 0.219 in experiment [1] (setting [6]), -0.342 in experiment [1] (setting [7]) and 0.364 in experiment [1] (setting [9]). Also, the concentration at half-maximal activity (AC50) is 11.8 µM [falling, partial curve] in experiment [1] (setting [8]) and 26.4 µM [falling, single point] in experiment [1] (setting [10]).
Regarding `Cc1ccc2nc(NCCN)c3ncc(C)n3c2c1`, the z-score in experiment [1] (setting [6]) is -1.62; in experiment [1] (setting [7]) it was -0.442; in experiment [1] (setting [9]), -0.43. For the same compound, the concentration at half-maximal activity (AC50) in experiment [1] (setting [8]) is 18.7 µM [falling, partial curve]; in experiment [1] (setting [10]), 3.72 µM [falling, full curve].
For `COc1cc(N2CCC(C(N)=O)CC2)ccc1Nc1nc(N)c(Cl)c(Nc2ccccc2S(=O)(=O)C(C)C)n1`, the values for the z-score in experiment [1] (setting [6]), in experiment [1] (setting [7]) and in experiment [1] (setting [9]) were -0.722, -0.374 and 0.00706, respectively. For the same compound, the AC50 was 0.0935 µM [falling, partial curve, poor fit] in experiment [1] (setting [8]) and 9.35 µM [falling, partial curve] in experiment [1] (setting [10]).
As to `COc1cc2nc(N3CCN(C(=O)C4CCCO4)CC3)nc(N)c2cc1OC` (configuration not stated), the AC50 in experiment [2] was 25.9 µM [rising, single point]; in experiment [1] (setting [10]), 20.9 µM [falling, single point]. Moreover, the z-score in experiment [1] (setting [6]) is -0.403; in experiment [1] (setting [7]) it was 0.223; in experiment [1] (setting [9]), 0.0983.
`Cc1cn([C@H]2C[C@H](N=[N+]=[N-])[C@@H](CO)O2)c(=O)[nH]c1=O`: the max response in experiment [3] was 46.8%. The AC50 in experiment [4] is 0.00112 µM [falling, full curve, poor fit]; in experiment [1] (setting [10]), 20.9 µM [falling, partial curve]. The z-score in experiment [1] (setting [6]) turned out to be 0.362; in experiment [1] (setting [7]) it was 0.333; in experiment [1] (setting [9]), 0.292.
As for `Nc1ccn([C@@H]2O[C@H](CO)[C@H](O)C2(F)F)c(=O)n1`, the half-maximal activity concentration (AC50) in experiment [5] is 0.707 µM [falling, full curve]; in experiment [1] (setting [8]) it was 0.132 µM [falling, full curve]; in experiment [1] (setting [10]), 0.0332 µM [falling, full curve]. The z-score in experiment [1] (setting [6]) was 0.209; in experiment [1] (setting [7]), -0.538; in experiment [1] (setting [9]) it was -1.81.
